Measurements reported in PubChem BioAssay AID504842 (National Center for Advancing Translational Sciences (NCATS), 2011).
Hit rate of the full screen: of about 330,000 compounds, about 100 (0.03%) were called active. The inconclusive results got no clear call from the source; some entries with a clear call stand among them for comparison. The call rests on the fitted dose curve; in most records, active means well fitted inhibition curve with a large enough effect; inconclusive means small, poorly fitted or top-dose-only effect; inactive means flat fitted curve, though single readings scatter. Potencies beside an inconclusive call are fits to weak or partial responses and may not hold up.

system: Chaperonin Mm-Cpn (Methanococcus maripaludis); assay: Inhibitors of TCP-1 ring complex (TRiC) of Methanococcus maripaludis (MmCpn): qHTS; settings: purified Mm-Cpn ATPase, ADP Transcreener TR-FRET; activity, negative = inhibition: at the top concentration; further: nearly all actives have a fitted effect of over 80% in size;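 on Potency: enzyme at 25 nM with ATP substrate at 10 µM during the reaction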
How it was run: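 25 nM Mm-CPN + cpd, 10 min 37°C; + 10 uM ATP, 30 min 37°C; buffer 30 mM Tris pH 7.4, 100 mM KCl, 5 mM MgCl2, 1 mM DTT; Transcreener ADP HTRF detection 30 min RT.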
On the % scale 0 is the no-effect control and ±100 the full control effect; potency means the concentration at half of the fitted maximal effect.

How did the Potency turn out when `CSc1ccc(-c2sc(Nc3ccccc3)n[n+]2-c2ccc(F)cc2)cc1` was run?
The Potency was inconclusive: 178 µM [inhibitor, partial curve, poor fit].

`O=C(Nc1ccc(OC(F)(F)C(F)F)c(NC(=O)c2cccc(F)c2)c1)c1cccc(F)c1` was tested. Which Potency did it give?
Its Potency is inconclusive: 50.1 µM [inhibitor, single point].

How did the “activity, negative = inhibition” value turn out when `Cc1cccnc1NC(=O)c1ccc(S(=O)(=O)N2CCCCC2)cc1` was run?
The value was inactive: 1.39%.

How did the “activity, negative = inhibition” value turn out when `CC(C)c1ccccc1NC(=S)NC(=O)C1CCCCC1` was run?
Its value is inactive: 1.44%.

`COc1cccc(CNC(=O)C2CCCN(c3ncnc4c3nc3n4CCCCC3)C2)c1` (configuration not stated) was tested. Which Potency did it give?
Its Potency is inconclusive: 316 µM [inhibitor, partial curve, poor fit].

Which “activity, negative = inhibition” value does the source give for `COc1ccc(C(C)NS(=O)(=O)Cc2ccccc2)cc1` (configuration not stated) here?
Its value is inactive: -2.37%.

How did the Potency turn out when `COc1cc(OC)nc(Oc2ccccc2C(=O)Oc2ccc(Cl)cc2)n1` was run?
The Potency was inconclusive: 15.8 µM [inhibitor, single point].

How did the Potency turn out when `Cn1c(SCC(=O)NCC2CCCO2)nnc1-c1ccco1` (configuration not stated) was run?
Its Potency is inconclusive: 100 µM [inhibitor, single point].

For `CNC(=S)Nc1cc(S(=O)(=O)Nc2cc(Cl)ccc2Cl)ccc1N1CCCC1`, which Potency is on record?
The Potency was inconclusive: 100 µM [inhibitor, single point].

`NC(=O)CC(NC(=O)Cc1ccc(Br)cc1)c1ccc(N2CCC(N3CCCCC3)CC2)c([N+](=O)[O-])c1` (configuration not stated) was tested. Which Potency did it give?
Its Potency is inconclusive: 89.1 µM [inhibitor, single point].

For `CCN(CCO)C(=O)CC1C(=O)NCCN1Cc1c(F)cccc1Cl` (configuration not stated), which Potency is on record?
Its Potency is inconclusive: 63.1 µM [inhibitor, partial curve, poor fit].

`O=C(c1coc(=O)c(Br)c1)N1CCCc2ccccc21` was tested. Which “activity, negative = inhibition” value did it give?
The value was inactive: -2.82%.

`COc1ccc(CSc2nnc(Cc3sc(-c4ccccc4)nc3-c3ccccc3)o2)cc1` was tested. Which Potency did it give?
The Potency was active: 35.5 µM.

With `Cc1ccc(S(=O)(=O)NC(=O)c2ccc(-c3ccc(C)c4ccccc34)o2)cc1` as the compound, how does the Potency read?
Its Potency is inconclusive: 10 µM [inhibitor, single point].

`COC(=O)c1c(-c2ccccc2OC)sc2cc3c(cc12)OCO3` was tested. Which Potency did it give?
The Potency was inconclusive: 50.1 µM [inhibitor, partial curve, poor fit].

For `CSC1=C(C#N)C(c2ccc3c(c2)OCO3)C2=C(CCCC2=O)N1` (configuration not stated), which “activity, negative = inhibition” value is on record?
Its value is inactive: -1.83%.

How did the Potency turn out when `O=C(CCS(=O)(=O)c1ccccc1)Nc1cccc(-c2nc3ccccc3s2)c1` was run?
The Potency was inconclusive: 100 µM [inhibitor, single point].

With `COc1ccc(NC(=O)CSc2nc(N)c(C#N)cc2C#N)cc1` as the compound, how does the Potency read?
Its Potency is inconclusive: 112 µM [inhibitor, single point].

`CN1CCN(C2=Nc3cc(Cl)ccc3Nc3ccccc32)CC1` was tested. Which “activity, negative = inhibition” value did it give?
Its value is inactive: -1.36%.

How did the “activity, negative = inhibition” value turn out when `Cc1ccc(NCC(O)C(O)C(O)CO)cc1C` (configuration not stated) was run?
The value was inactive: -2.16%.

`CCN(CC)S(=O)(=O)c1cccc(-c2n[nH]c(=S)n2/N=C/c2ccc(OC(F)F)cc2)c1` was tested. Which “activity, negative = inhibition” value did it give?
Its value is inactive: 0.989%.

`O=C(CSc1nc2nc(-c3cccs3)cc(C(F)(F)F)c2c(=O)[nH]1)NCc1ccco1` was tested. Which Potency did it give?
Its Potency is inconclusive: 5.62 µM [inhibitor, single point].

`c1cc2cn[nH]c2cc1NC1CCCCCC1` was tested. Which “activity, negative = inhibition” value did it give?
The value was inactive: -2.94%.

For `Cc1nn(C)c(C(=O)NNC(=S)NCC(C)C)c1Cl`, which “activity, negative = inhibition” value is on record?
Its value is inactive: -1.81%.

Which Potency does the source give for `CSCCC(NC(=O)COc1ccccc1)C(=O)N1CCN(c2ccccc2)CC1` (configuration not stated) here?
The Potency was inconclusive: 126 µM [inhibitor, partial curve, poor fit].

`CCOC(=O)C1=C(c2ccccc2)O/C(=C(/C(=O)OC)C(F)(F)F)S1` was tested. Which Potency did it give?
Its Potency is inconclusive: 63.1 µM [inhibitor, single point].

How did the Potency turn out when `COc1ccc(-c2cn3c(C)c(C(=O)Nc4cccc(C)n4)sc3n2)cc1` was run?
The Potency was inconclusive: 89.1 µM [inhibitor, single point].

How did the Potency turn out when `O=C(Nc1ccc(Cl)cn1)C1COc2ccccc2O1` (configuration not stated) was run?
The Potency was inconclusive: 12.6 µM [inhibitor, single point].

How did the Potency turn out when `Cn1c(C(C(=O)NCC2CCCO2)N(CCc2ccccc2)C(=O)Cn2nnc3ccccc32)nc2ccccc21` (configuration not stated) was run?
The Potency was inconclusive: 17.8 µM [inhibitor, single point].

With `O=C(CSc1nnc(-c2cccnc2)n1Cc1ccco1)c1ccc2ccccc2c1` as the compound, how does the Potency read?
The Potency was inconclusive: 398 µM [inhibitor, partial curve, poor fit].

For `N#CC1=C(N)OC2=C(C(=O)CC(c3ccccc3)C2)C1c1ccoc1` (configuration not stated), which Potency is on record?
Its Potency is inconclusive: 89.1 µM [inhibitor, single point].

`COc1ccc2oc(=O)c(C(=O)N3CCN(C(=O)c4ccco4)CC3)cc2c1` was tested. Which “activity, negative = inhibition” value did it give?
Its value is inactive: -5.24%.

`O=C(Nc1ccc2ccccc2c1)c1ccc(Cl)cc1` was tested. Which Potency did it give?
The Potency was inconclusive: 224 µM [inhibitor, partial curve, poor fit].

How did the Potency turn out when `Cc1cc(OCC(=O)NCCc2cccc(F)c2)c2c(C)cc(=O)oc2c1` was run?
Its Potency is inconclusive: 17.8 µM [inhibitor, single point].

`CC1CCc2nc3sc4c(c3c(N)c2C1)CCCC4` (configuration not stated) was tested. Which Potency did it give?
The Potency was inconclusive: 100 µM [inhibitor, single point].

With `Nc1c(C(=O)O)ccc2c1C(=O)c1ccccc1C2=O` as the compound, how does the “activity, negative = inhibition” value read?
The value was inactive: -16.4%.

With `CCCCNC(=O)c1ccc(NC(=O)C2CCCO2)cc1` (configuration not stated) as the compound, how does the Potency read?
The Potency was inconclusive: 70.8 µM [inhibitor, single point].

How did the Potency turn out when `COC(=O)C1=C(O)/C(=C/c2ccc(OCC(=O)Nc3ccccc3)cc2)N=C1C` was run?
Its Potency is inconclusive: 70.8 µM [inhibitor, single point].

Which Potency does the source give for `COc1ccc(OC)c(NC(=O)CN2c3cccc4cccc(c34)S2(=O)=O)c1` here?
The Potency was inconclusive: 79.4 µM [inhibitor, single point].

With `COc1cc(OC)cc(-c2c(-c3cccs3)c3cc(-c4ccc(OC)cc4F)ccc3n2C)c1` as the compound, how does the Potency read?
Its Potency is inconclusive: 63.1 µM [inhibitor, partial curve, poor fit].

How did the Potency turn out when `CCN(CC(=O)NCc1ccc(F)cc1)Cc1nc2ccccc2c(=O)[nH]1` was run?
Its Potency is inconclusive: 14.1 µM [inhibitor, single point].

Which Potency does the source give for `CC(C)CNC(=O)COC(=O)c1ccccc1SCC(=O)NCC(C)C` here?
The Potency was inconclusive: 100 µM [inhibitor, single point].

`NC(=O)c1cccc2cc3ccccc3cc12` was tested. Which Potency did it give?
The Potency was inconclusive: 708 µM [inhibitor, partial curve, poor fit].

How did the Potency turn out when `O=C(Nc1ccc(CSc2ccccc2)cc1)c1ccc(CN2CCOCC2)cc1` was run?
Its Potency is inconclusive: 22.4 µM [inhibitor, single point].

For `COc1cc2nc(SCc3ccc(F)cc3)n(Cc3cccs3)c(=N)c2cc1OC`, which Potency is on record?
The Potency was inconclusive: 100 µM [inhibitor, single point].

Which “activity, negative = inhibition” value does the source give for `COC(=O)c1sc2cnccc2c1N` here?
Its value is inactive: -1.32%.

How did the Potency turn out when `CCSc1ccccc1C(=O)Nc1cccc(OC)c1` was run?
The Potency was inconclusive: 50.1 µM [inhibitor, single point].

With `Cc1ccc(C(=O)N2CCC(n3nccc3NC(=O)c3ccccc3C)CC2)cn1` as the compound, how does the Potency read?
Its Potency is inconclusive: 12.6 µM [inhibitor, single point].

`COc1ccc(CNc2nc3c(c(=O)n(Cc4ccc(Br)cc4)c(=O)n3C)n2C)cc1` was tested. Which Potency did it give?
Its Potency is inconclusive: 10 µM [inhibitor, single point].

For `O=C(NC(Cc1ccccc1)C(=O)N1CCCC1C(=O)O)c1ccccc1` (configuration not stated), which Potency is on record?
Its Potency is inconclusive: 25.1 µM [inhibitor, single point].

With `CCOC(=O)C1CCCN(c2c(N3CCc4ccccc4C3)c(=O)c2=O)C1` (configuration not stated) as the compound, how does the Potency read?
The Potency was inconclusive: 15.8 µM [inhibitor, single point].

`COc1cc(C(CCN2CCCC2)c2c(OC)cc(OC)c3ccc(=O)oc23)cc(OC)c1OC` (configuration not stated) was tested. Which Potency did it give?
The Potency was inconclusive: 14.1 µM [inhibitor, single point].

For `N=c1n(CCN2CCOCC2)c2ccccc2n1CC(=O)c1ccc(Cl)c(Cl)c1`, which Potency is on record?
The Potency was inconclusive: 89.1 µM [inhibitor, single point].

How did the “activity, negative = inhibition” value turn out when `CCC(=O)NCCc1cc2cc(C)c(C)cc2[nH]c1=O` was run?
The value was inactive: 1.02%.

With `O=C(CCC(=O)c1ccc(Oc2ccccc2)cc1)Nc1ccc(Cl)cc1Cl` as the compound, how does the Potency read?
The Potency was inconclusive: 100 µM [inhibitor, single point].

`COc1cc(OC)c(OC)cc1/C=C/C(=O)c1ccc(NS(=O)(=O)c2ccc(C)cc2)cc1` was tested. Which Potency did it give?
The Potency was inconclusive: 100 µM [inhibitor, single point].

With `O=C(COC(=O)C1CC2CCCC(C1)C2=O)Nc1ccc(Cl)cn1` (configuration not stated) as the compound, how does the Potency read?
The Potency was inconclusive: 11.2 µM [inhibitor, single point].

Which Potency does the source give for `Cc1ccc(-c2nnc(NCc3nc4ccccc4[nH]3)c3ccccc23)cc1S(=O)(=O)N(C)C` here?
The Potency was inconclusive: 89.1 µM [inhibitor, single point].

`CC(C)(C)C(=O)Nc1ccc(NC(=O)c2ccco2)nc1` was tested. Which “activity, negative = inhibition” value did it give?
The value was inactive: 0.77%.

For `Cc1ccc(S(=O)(=O)N(CC(=O)N/N=C/c2ccco2)c2cc(Cl)cc(Cl)c2)cc1`, which “activity, negative = inhibition” value is on record?
Its value is inactive: -0.102%.

`NC(=O)c1cc(Br)cc(C2CCCCC2)c1O` was tested. Which Potency did it give?
The Potency was inconclusive: 200 µM [inhibitor, partial curve, poor fit].

`COc1ccc(N2CS(=O)CC2=O)cc1` (configuration not stated) was tested. Which Potency did it give?
The Potency was inconclusive: 25.1 µM [inhibitor, single point].

For `COc1ccc(C(=O)N/N=C(\C)Cn2nc([N+](=O)[O-])cc2C)cc1`, which “activity, negative = inhibition” value is on record?
The value was inactive: 2.62%.

For `CC(Oc1ccc(Cl)cc1Cl)C(=O)NCCCN1CCOCC1` (configuration not stated), which Potency is on record?
Its Potency is inconclusive: 100 µM [inhibitor, single point].

`CC(Sc1nc2ccccc2c(=O)n1C)C(=O)NC1CCCCC1C` (configuration not stated) was tested. Which Potency did it give?
The Potency was inconclusive: 89.1 µM [inhibitor, single point].

For `S=C(Nc1ccccc1)N1N=C(c2cccs2)CC1c1cccs1` (configuration not stated), which Potency is on record?
The Potency was inconclusive: 56.2 µM [inhibitor, single point].

How did the Potency turn out when `CCOc1cc(C2NC(=O)NC(C)=C2C(=O)OCC2CCCCC2)ccc1O` (configuration not stated) was run?
The Potency was inconclusive: 200 µM [inhibitor, partial curve, poor fit].
